At least one compound was matched to its structure with a doubt left.
System: Male Syrian hamsters
Assay: LDL-cholesterol, total-cholesterol and triglyceride lowering in hypercholesterolemic hamsters
Format: in vivo
Settings: 200 mg/kg daily by gavage for 14 days; compared to vehicle

For `CC(C)OC(=O)C(C)(C)Oc1ccc(C(=O)c2ccc(Cl)cc2)cc1` [fenofibrate, Fenofibrate], the “reduction in total cholesterol and triglyceride levels” value was “did not show significant efficacy”.
